Data on 7 substances can be found in publication doi:10.1101/725044.

Chains of the proteins cited; added tags and fusions are not shown. Lines headed by an entry give the natural chain unless they say otherwise; changes in a name come on top. Residues count along the entry.
UniProt Q8N6T7: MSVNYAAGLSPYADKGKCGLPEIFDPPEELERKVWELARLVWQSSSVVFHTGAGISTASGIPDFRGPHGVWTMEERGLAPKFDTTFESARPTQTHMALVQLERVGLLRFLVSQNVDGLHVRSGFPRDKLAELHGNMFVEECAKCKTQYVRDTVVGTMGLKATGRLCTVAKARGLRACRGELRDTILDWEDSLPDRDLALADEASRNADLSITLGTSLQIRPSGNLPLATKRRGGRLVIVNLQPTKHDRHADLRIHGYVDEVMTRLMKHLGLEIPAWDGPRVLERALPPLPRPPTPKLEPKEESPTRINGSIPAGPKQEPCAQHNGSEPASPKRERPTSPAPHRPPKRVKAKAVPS
UniProt Q92993: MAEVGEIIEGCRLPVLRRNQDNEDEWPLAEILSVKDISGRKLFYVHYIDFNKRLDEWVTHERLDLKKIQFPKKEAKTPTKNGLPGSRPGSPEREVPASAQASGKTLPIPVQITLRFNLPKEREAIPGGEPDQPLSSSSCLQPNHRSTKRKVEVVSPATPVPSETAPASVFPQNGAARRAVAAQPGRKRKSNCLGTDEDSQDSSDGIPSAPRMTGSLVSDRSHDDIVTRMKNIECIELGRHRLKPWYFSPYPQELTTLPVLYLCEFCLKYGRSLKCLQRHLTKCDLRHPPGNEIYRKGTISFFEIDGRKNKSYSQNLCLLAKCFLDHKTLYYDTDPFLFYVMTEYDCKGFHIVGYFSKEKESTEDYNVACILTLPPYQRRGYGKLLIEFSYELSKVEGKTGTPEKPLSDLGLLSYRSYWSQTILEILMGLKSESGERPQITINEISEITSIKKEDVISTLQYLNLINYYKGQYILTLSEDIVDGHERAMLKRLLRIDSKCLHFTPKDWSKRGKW
UniProt P43694: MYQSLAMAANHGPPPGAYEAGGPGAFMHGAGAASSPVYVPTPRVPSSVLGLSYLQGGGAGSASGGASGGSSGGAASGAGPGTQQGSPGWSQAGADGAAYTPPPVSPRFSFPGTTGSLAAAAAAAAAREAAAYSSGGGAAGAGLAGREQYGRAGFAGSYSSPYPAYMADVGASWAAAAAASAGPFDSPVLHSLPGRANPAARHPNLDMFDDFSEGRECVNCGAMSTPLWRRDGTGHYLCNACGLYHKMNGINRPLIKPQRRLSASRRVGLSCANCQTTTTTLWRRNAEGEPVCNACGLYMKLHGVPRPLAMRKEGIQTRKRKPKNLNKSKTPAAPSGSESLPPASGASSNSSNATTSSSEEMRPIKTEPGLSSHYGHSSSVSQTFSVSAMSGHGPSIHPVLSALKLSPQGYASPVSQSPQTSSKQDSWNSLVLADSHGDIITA
GATA4 C-terminal zinc finger region (a.a. 251-350): residues 251-350 of P43694

One assay concerns the target GST-tagged SIRT6 (UniProt Q8N6T7). The experiment in a line: pull-down.
The target in another assay is HA-SIRT6 (UniProt Q8N6T7). The experiment in a line: co-IP.
Assay [1] deals with Flag-Tip60 (UniProt Q92993). The assay can be described thus: co-IP.
In a further assay the target is Flag-GATA4 (UniProt P43694). The assay can be described thus: co-IP.
The target in assay [2] is Flag-Tip60 (UniProt Q92993). The assay can be described thus: co-IP. This is another data set of the same source.
The target of assay [3] is GATA4 C-terminal zinc finger region (a.a. 251-350) (UniProt P43694). The experiment in a line: co-IP.
The target of the next assay is HA-GATA4 (UniProt P43694). The assay can be described thus: co-IP.
Another assay addresses GATA4 (UniProt P43694). The experiment in a line: co-IP.

Like-named read-outs stand apart in the source and are kept apart here. No constants are given. Whether binding was seen depends on the method and setting. For part of these data: In cells and extracts the contact can be indirect. Some entries that bind do so weakly or less than the wild type.

Consider “His-tagged GATA4 (from UniProt P43694 1-442)”, for which, in the assay with GST-tagged SIRT6, the binding entry is “binds”.
Consider GATA4 (from UniProt P43694 1-442), for which, in the assay with HA-SIRT6, the binding result was “binds”.
As to SIRT6 (from UniProt Q8N6T7 1-355), the binding result (in the assay with Flag-Tip60 [1]; in the assay with Flag-GATA4; with Flag-Tip60 [2]; in assay [3]) was “binds” throughout.
With Flag-SIRT6 (from UniProt Q8N6T7 1-355), the binding result with HA-GATA4 is on record as “binds”.
Turning to SIRT6 H133Y (from UniProt Q8N6T7 1-355), the binding entry with GATA4 is given as “no binding”.
For the substance SIRT6 D116N (from UniProt Q8N6T7 1-355), the binding entry in the assay with Flag-Tip60 [2] and with GATA4 was “binds” in each case.
SIRT6 D63Y (from UniProt Q8N6T7 1-355): the binding entry with Flag-Tip60 [2] and with GATA4 was “binds” throughout.
